According to the supplement of paper PMC10338343:
± gives the standard deviation. This is a selection; strong and weak results do not stand in their true shares. Many of these values have a large error.

How the values were obtained:
[1] = test system: MIWI (PIWIL1) piRISC loaded with piRNA #1 (30 nt); experiment: pre-steady-state target cleavage rate (min^-1); higher = faster piRNA-guided slicing of the target; details: guide: piRNA #1 5'p-UGAGGUAGUAGGUUGUAUAGUAUCCAGAGG; auxiliary factor: 500 nM mouse GTSF1;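 note: 1 nM active piRISC with 0.1 nM target library at 33 °C single turnover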
In short: (§1)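 At 33 °C in HEPES–potassium acetate buffer, a transcribed, DNA-blocked target RNA library […] was exposed for 0–8 or 0–960 min to 1 nM active affinity-purified piRISC carrying a single synthetic guide, with or without 500 nM GTSF1 partner protein. Uncleaved targets were sequenced and normalised to depth and to weakly complementary targets. With three trials pooled and k3 capped at 0.0001 min^-1, a burst-and-steady-state fit produced the pre-steady-state cleavage rate.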

[2] = test system: EfPiwi piRISC loaded with piRNA #1 (26 nt); experiment: pre-steady-state target cleavage rate (min^-1); guide: piRNA #1 5'p-UGAGGUAGUAGGUUGUAUAGUAUCCA; MIWI and MILI are mouse PIWI proteins and EfPiwi is from a freshwater sponge; tags in brackets are library labels; higher = faster piRNA-guided slicing of the target; details: auxiliary factor: 500 nM Ephydatia muelleri Gtsf1
In short: as §1

Sequence	pre-steady-state target cleavage rate [1]	pre-steady-state target cleavage rate [2]
GGAGACCUAUGAAUACAACCGACUACCUCA	0.000511 ± 0.0071	0.00106 ± 0.011
GGAGACCUAUGAUUACAACCUACUACCUUA	0.000467 ± 0.0059	0.00206 ± 0.0044
GGAGACCUAUGAUAUGUAACCUACUACCUCA	0.00185 ± 0.0025	0.000676 ± 0.0085
GGAGACCUAACAAUACAACCUACUAGCUCA	0.00303 ± 0.0045	0.00157 ± 0.0058
GGAGACCUAUGAUUACAACCUACGACCUCA	0.000517 ± 0.0089	0.00103 ± 0.0078
GGAGACCUAUGAUAACAACCUACCUACCUCA	0.00149 ± 0.0034	0.000188 ± 0.02
GGAGACCUAUGAAUACAACCUACCUACCUCA	0.002 ± 0.0031	0.000594 ± 0.012
GGAGACCUAUGAAUACAACCUACUACGUCA	0.00208 ± 0.0022	0.00135 ± 0.0051
GGAGACCUAUGUAUACUACCUACUACCACA	0.00194 ± 0.0027	0.000774 ± 0.013
GGAGAGAUACUAUACAACCUACUACCUCA	1.89 ± 0.11	0.121 ± 0.054
GGAGACCUAUGAAUACAACCUACUGACCUCA	0.00187 ± 0.0038	0.00017 ± 0.033
GGAGACCUAUGAAAACAACCUACAACCUCA	0.000254 ± 0.0091	0.000541 ± 0.012
GGAGACCUUACUAUACAACCUACUAGGUCA	0.00366 ± 0.0037	0.00329 ± 0.0035
GGAGACCUAUGUAUACUACCUACUUCCUCA	0.000903 ± 0.0055	0.000297 ± 0.011
GGAGACCUAUGAUAUGUUCCUGACUACCUCA	0.000116 ± 0.021	0.000211 ± 0.013
GGAGACCUAUCUAAACUACCUACUACCUCA	0.000884 ± 0.0048	0.000977 ± 0.0056
GGAGACCUAUGAAAACAUCCUACUACCUCA	0.000623 ± 0.0073	0.00025 ± 0.0083
GGAGACCUAUGAUAACAACCUACGUACCUCA	0.000276 ± 0.0081	0.000323 ± 0.029
GGAGACCUAUCUAUACAACCUACUUCCUGA	0.0338 ± 0.01	0.00139 ± 0.0042
GGAGACCAUACUAUACAACCUAUACCUCA	0.00163 ± 0.0044	0.00351 ± 0.0036

As a short view, part of the list above:
Sequence	pre-steady-state target cleavage rate [1]	pre-steady-state target cleavage rate [2]
GGAGACCUAUGUAUACUACCUACUUCCUCA	0.000903 ± 0.0055	0.000297 ± 0.011
GGAGACCUAUGAUAUGUUCCUGACUACCUCA	0.000116 ± 0.021	0.000211 ± 0.013
GGAGACCUAUCUAAACUACCUACUACCUCA	0.000884 ± 0.0048	0.000977 ± 0.0056
GGAGACCUAUGAAAACAUCCUACUACCUCA	0.000623 ± 0.0073	0.00025 ± 0.0083
GGAGACCUAUGAUAACAACCUACGUACCUCA	0.000276 ± 0.0081	0.000323 ± 0.029
GGAGACCUAUCUAUACAACCUACUUCCUGA	0.0338 ± 0.01	0.00139 ± 0.0042
GGAGACCAUACUAUACAACCUAUACCUCA	0.00163 ± 0.0044	0.00351 ± 0.0036

(listing goes on)

Sequence	pre-steady-state target cleavage rate [1]	pre-steady-state target cleavage rate [2]
GGAGACCUAUGUAAACAAGCUACUACCUCA	0.00165 ± 0.004	0.000471 ± 0.0073
GGAGACCUAUGAUUACAACCUACUACCUGCA	0.00119 ± 0.0066	0.000705 ± 0.0084
GGAGACCUAUCAAUACUACCUACUACCUCA	0.00203 ± 0.0035	0.000413 ± 0.0074
GGAGACCUAUGAUAUGUUGCUACUAGCACA	0.00101 ± 0.008	0.000998 ± 0.0062
GGAGACCUAUGAUUACAACCUACUCCCUCA	0.000863 ± 0.0061	0.00156 ± 0.0039
GGAGACCUAUCAAUACAACCUACAACCUCA	0.00209 ± 0.0042	0.00145 ± 0.0062
GGAGACCUAUGAUCACAACCUACUACCUCA	0.00149 ± 0.0058	0.00429 ± 0.0038
GGAGACCAUACUAUACAACCUACUACCAUCA	1.35 ± 0.087	0.0041 ± 0.0029
GGAGACCUAUGAUUACAUGCUACUACCUCA	0.00177 ± 0.0051	0.00285 ± 0.0042
GGAGACGAUACUAUACAACCUACUACGUGA	0.348 ± 0.054	0.00515 ± 0.0026
GGAGACCUAUCUAAACAACCUACUACCUGA	0.0035 ± 0.0036	0.00128 ± 0.0063
GGAGACCUAUGAAUACAACCUACUACACUCA	0.00198 ± 0.0029	0.000683 ± 0.013
GGAGACCUAUGUAUACAACCUACAAGCUCA	0.00024 ± 0.0075	0.000143 ± 0.019
GGAGACCUAUGAUAUGUUGCUACUUGGUCA	0.000121 ± 0.043	0.000792 ± 0.0059
GGAGACCUAUGAUUACAACGUACUACCUCA	0.000935 ± 0.0029	0.00195 ± 0.0045
GGAGACCUAUGAAUACCACCUACUACCUCA	0.00037 ± 0.0083	0.000325 ± 0.02
GGAGACCUAUGAAUACAAGCUAGUACCUCA	0.000372 ± 0.005	0.000291 ± 0.012
GGAGUGGAUACUGAUACAACCUACUACCUCA	1.3 ± 0.098	0.0129 ± 0.0062
GGAGACCUAUGUUUACUACCUACUACCUCA	0.000624 ± 0.0049	0.000568 ± 0.0059
GGAGACCUAUGAUUACAUCCUACUACGUCA	0.00195 ± 0.0031	0.00157 ± 0.0043
